Some of the results follow.
Legend:
Test in all cases: glycan array binding signal (z-score within array); higher = stronger binding
Details in all cases: glycan notation: IUPAC condensed, linker removed
[1] = biological target: Man(a1-2)Man(a1-3)[Man(a1-2)Man(a1-6)]Man
In short: (§1)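 Arrays were curated from the Consortium for Functional Glycomics database, 3228 in total, and kept only where the protein sequence was available. Binding is expressed as a within-array Z-score. This score was averaged across arrays of the same protein sequence at different concentrations or buffers and across linkers, and negative values can be read as non-binding.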

[2] = biological target: Man(a1-2)Man(a1-3)[Man(a1-2)Man(a1-6)]Man(a1-6)[Man(a1-2)Man(a1-2)Man(a1-3)]Man
In short: as §1

[3] = biological target: Man(a1-2)Man(a1-3)[Man(a1-2)Man(a1-6)]Man(a1-6)[Man(a1-2)Man(a1-2)Man(a1-3)]Man(b1-4)GlcNAc(b1-4)GlcNAc
In short: as §1

[4] = biological target: Man(a1-2)Man(a1-3)[Man(a1-6)]Man(a1-6)[Man(a1-2)Man(a1-3)]Man(b1-4)GlcNAc(b1-4)GlcNAc
In short: as §1

[5] = biological target: Man(a1-2)Man(a1-6)[Man(a1-3)]Man(a1-6)[Man(a1-2)Man(a1-2)Man(a1-3)]Man
In short: as §1

[6] = biological target: Man(a1-2)Man(a1-6)[Man(a1-3)]Man(a1-6)[Man(a1-2)Man(a1-2)Man(a1-3)]Man(b1-4)GlcNAc(b1-4)GlcNAc
In short: as §1

Man(a1-3)[Man(a1-6)]Man = biological target: Man(a1-3)[Man(a1-6)]Man
In short: as §1

[7] = biological target: Man(a1-3)[Man(a1-6)]Man(a1-6)[Man(a1-2)Man(a1-3)]Man(b1-4)GlcNAc(b1-4)GlcNAc
In short: as §1

[8] = biological target: Man(a1-3)[Man(a1-6)]Man(a1-6)[Man(a1-3)]Man
In short: as §1

[9] = biological target: Man(a1-3)[Man(a1-6)]Man(a1-6)[Man(a1-3)]Man(b1-4)GlcNAc(b1-4)GlcNAc
In short: as §1

[10] = biological target: Man(a1-3)[Man(a1-6)]Man(b1-4)GlcNAc(b1-4)GlcNAc
In short: as §1

[11] = biological target: Man(a1-3)[Man(a1-6)]Man(b1-4)GlcNAc(b1-4)[Fuc(a1-6)]GlcNAc
In short: as §1

Man(a1-6)Man = biological target: Man(a1-6)Man
In short: as §1

Man(b1-4)GlcNAc = biological target: Man(b1-4)GlcNAc
In short: as §1

MurNAc(b1-4)GlcNAc = biological target: MurNAc(b1-4)GlcNAc
In short: as §1

Neu5Ac(a2-3)Gal = biological target: Neu5Ac(a2-3)Gal
In short: as §1

[12] = biological target: Neu5Ac(a2-3)Gal(b1-3)GalNAc
In short: as §1

[13] = biological target: Neu5Ac(a2-3)Gal(b1-3)GalNAc(b1-3)Gal(a1-4)Gal(b1-4)Glc
In short: as §1

[14] = biological target: Neu5Ac(a2-3)Gal(b1-3)GalNAc(b1-4)Gal(b1-4)Glc
In short: as §1

[15] = biological target: Neu5Ac(a2-3)Gal(b1-3)GalNAc(b1-4)[Neu5Ac(a2-3)]Gal(b1-4)Glc
In short: as §1

[16] = biological target: Neu5Ac(a2-3)Gal(b1-3)GalNAc(b1-4)[Neu5Ac(a2-8)Neu5Ac(a2-3)]Gal(b1-4)Glc
In short: as §1

[17] = biological target: Neu5Ac(a2-3)Gal(b1-3)GalNAc6S
In short: as §1

[18] = biological target: Neu5Ac(a2-3)Gal(b1-3)GlcNAc
In short: as §1

[19] = biological target: Neu5Ac(a2-3)Gal(b1-3)GlcNAc(b1-2)Man
In short: as §1

[20] = biological target: Neu5Ac(a2-3)Gal(b1-3)GlcNAc(b1-2)Man(a1-3)[GlcNAc(b1-4)][Neu5Ac(a2-3)Gal(b1-3)GlcNAc(b1-2)Man(a1-6)]Man(b1-4)GlcNAc(b1-4)GlcNAc
In short: as §1

[21] = biological target: Neu5Ac(a2-3)Gal(b1-3)GlcNAc(b1-2)Man(a1-3)[Neu5Ac(a2-3)Gal(b1-3)GlcNAc(b1-2)Man(a1-6)]Man(b1-4)GlcNAc(b1-4)GlcNAc
In short: as §1

[22] = biological target: Neu5Ac(a2-3)Gal(b1-3)GlcNAc(b1-2)[Neu5Ac(a2-3)Gal(b1-3)GlcNAc(b1-4)]Man(a1-6)[Neu5Ac(a2-3)Gal(b1-3)GlcNAc(b1-2)Man(a1-3)]Man(b1-4)GlcNAc(b1-4)GlcNAc
In short: as §1

[23] = biological target: Neu5Ac(a2-3)Gal(b1-3)GlcNAc(b1-3)Gal(b1-3)GlcNAc
In short: as §1

[24] = biological target: Neu5Ac(a2-3)Gal(b1-3)GlcNAc(b1-3)Gal(b1-4)GlcNAc
In short: as §1

[25] = biological target: Neu5Ac(a2-3)Gal(b1-3)GlcNAc(b1-3)GalNAc
In short: as §1

B1: SHCBP1-GST (Homo sapiens), Q8NEM2 (protein)
chain: MADGSLTGGGLEAAAMAPERMGWAVEQELASLEKGLFQDEDSCSDCSYRDKPGSSLQSFMPEGKTFFPEIFQTNQLLFYERFRAYQDYILADCKASEVQEFTAEFLEKVLEPSGWRAVWHTNVFKVLVEITDVDFAALKAVVRLAEPYLCDSQVSTFTMECMKELLDLKEHRLPLQELWVVFDDSGVFDQTALAIEHVRFFYQNIWRSWDEEEEDEYDYFVRCVEPRLRLHYDILEDRVPSGLIVDYHNLLSQCEESYRKFLNLRSSLSNCNSDSEQENISMVEGLKLYSEMEQLKQKLKLIENPLLRYVFGYQKNSNIQAKGVRSSGQKITHVVSSTMMAGLLRSLLTDRLCQEPGEEEREIQFHSDPLSAINACFEGDTVIVCPGHYVVHGTFSIADSIELEGYGLPDDIVIEKRGKGDTFVDCTGADIKISGIKFVQHDAVEGILIVHRGKTTLENCVLQCETTGVTVRTSAEFLMKNSDLYGAKGAGIEIYPGSQCTLSDNGIHHCKEGILIKDFLDEHYDIPKISMVNNIIHNNEGYGVVLVKPTIFSDLQENAEDGTEENKALKIQTSGEPDVAERVDLEELIECATGKMELCARTDPSEQVEGNCEIVNELIAASTQKGQIKKKRLSELGITQADDNLMSQEMFVGIVGNQFKWNGKGSFGTFLF
[1]
  glycan array binding signal (z-score): -0.43
[2]
  glycan array binding signal (z-score): -0.707
[3]
  glycan array binding signal (z-score): -0.586
[4]
  glycan array binding signal (z-score): -0.574
[5]
  glycan array binding signal (z-score): 0.11
[6]
  glycan array binding signal (z-score): -0.72
Man(a1-3)[Man(a1-6)]Man
  glycan array binding signal (z-score): 0.387
[7]
  glycan array binding signal (z-score): -0.061
[8]
  glycan array binding signal (z-score): -0.016
[9]
  glycan array binding signal (z-score): 0.695
[10]
  glycan array binding signal (z-score): -0.524
[11]
  glycan array binding signal (z-score): -0.42
Man(a1-6)Man
  glycan array binding signal (z-score): -0.285
Man(b1-4)GlcNAc
  glycan array binding signal (z-score): 0.293
MurNAc(b1-4)GlcNAc
  glycan array binding signal (z-score): -0.39
Neu5Ac(a2-3)Gal
  glycan array binding signal (z-score): 0.658
[12]
  glycan array binding signal (z-score): -0.322
[13]
  glycan array binding signal (z-score): -0.108
[14]
  glycan array binding signal (z-score): -0.427
[15]
  glycan array binding signal (z-score): 0.166
[16]
  glycan array binding signal (z-score): -0.123
[17]
  glycan array binding signal (z-score): -0.959
[18]
  glycan array binding signal (z-score): 0.028
[19]
  glycan array binding signal (z-score): 0.247
[20]
  glycan array binding signal (z-score): -0.681
[21]
  glycan array binding signal (z-score): -0.428
[22]
  glycan array binding signal (z-score): 1.25
[23]
  glycan array binding signal (z-score): -0.82
[24]
  glycan array binding signal (z-score): -0.255
[25]
  glycan array binding signal (z-score): -0.12

Reference: the supplement of paper PMC8728848
